Test results published in patent publication US10167259B2, “Allosteric inhibitors of proteasome and methods of use thereof” (THE BOARD OF REGENTS OF THE UNIVERSITY OF TEXAS SYSTEM, priority 2013, dated 2019).
At least one structure is not confirmed: it was looked up by name or label, or the drawing left a doubt.

Tests used:
[1] = tested on: chymotrypsin-like activity of the core particle (CP; 20S); test: Inhibition of chymotrypsin-like peptidase activity of the proteasome core particle
[2] = tested on: core proteasome α face (gate conformers); test: Atomic force microscopy (AFM) imaging of core proteasome gate conformers; conditions: FIG. 1E

## CO[C@H]1C[C@@H]2CC[C@@H](C)[C@@](O)(O2)C(=O)C(=O)N2CCCC[C@H]2C(=O)O[C@H]([C@H](C)C[C@@H]2CC[C@@H](O)[C@H](OC)C2)CC(=O)[C@H](C)/C=C(\C)[C@@H](O)[C@@H](OC)C(=O)[C@H](C)C[C@H](C)/C=C/C=C/C=C/1C [rapamycin, reference compound]
[1]
  Mode of inhibition of proteasome ChT-L and PGPH peptidase activities: noncompetitive inhibitor
[2]
  Content of open-gate conformers in the treated core particle (AFM): unusually high content of open-gate conformers
